Laboratory results taken from PMC10989989, “The archaeal KEOPS complex possesses a functional Gon7 homolog and has an essential function independent of the cellular t^6A modification level” (mLife, 2023).

The chains behind the UniProt entries cited, without tags or fusion partners. Where a name states a change or a piece, a line headed by the entry shows the natural chain unless it says otherwise.
UniProt F0NFC9: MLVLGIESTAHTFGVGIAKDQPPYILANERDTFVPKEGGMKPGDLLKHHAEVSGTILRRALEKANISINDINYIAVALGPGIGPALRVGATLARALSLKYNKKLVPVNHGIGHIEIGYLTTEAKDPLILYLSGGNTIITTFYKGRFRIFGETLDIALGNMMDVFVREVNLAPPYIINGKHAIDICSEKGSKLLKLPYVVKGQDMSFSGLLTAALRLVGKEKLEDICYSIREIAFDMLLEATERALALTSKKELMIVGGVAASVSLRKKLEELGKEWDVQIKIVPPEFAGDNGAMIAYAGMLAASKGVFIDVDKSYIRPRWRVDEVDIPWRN
UniProt F0NF65: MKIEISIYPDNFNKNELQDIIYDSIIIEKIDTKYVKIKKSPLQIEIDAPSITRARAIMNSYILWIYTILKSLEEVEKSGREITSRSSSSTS
UniProt F0NIH8: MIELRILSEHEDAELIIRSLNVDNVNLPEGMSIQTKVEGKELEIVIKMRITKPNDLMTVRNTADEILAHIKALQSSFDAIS

Biological target: His-tagged SisKae1 overexpressed in S. islandicus (Saccharolobus islandicus REY15A) (UniProt F0NFC9)
Assay: affinity purification with mass spectrometry; His-tagged subunits overexpressed in S. islandicRus REY15A; co-purified proteins identified by mass spectrometry

binding | Substance
binds | Pcc1 of S. islandicus (endogenous) (from UniProt F0NF65)
binds | Pcc1‐like of S. islandicus (endogenous) (from UniProt F0NIH8)

Results are given in words; binding and its absence hold for the method and conditions named. Binding seen in cells or lysates may run through a third protein. These calls come from enrichment with a bait or labelling near it, and not all partners need be listed.
